A short description of the assay: qHTS Assay for Lipid Storage Modulators in Drosophila S3 Cells.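 As to cell number change: cells counted by Cell Tracker Red CMTPX staining in the red channel.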 The following applies: BODIPY lipid droplet fluorescence, 18-24 h; for cell number change: measured here: cell count max response, cells fed with added oleic acid. The gist of the method: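 Laser-scanning cytometry quantifies lipid droplet accumulation (500–530 nm total intensity; droplet/cell object ratio) in oleic acid-fed (400 uM added) Drosophila S3 cells treated with a concentration series. 20 uM Triacsin C defined 100% inhibition.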
A general note: In qHTS, concentration-response curves come from the screen itself.

[1] abbreviates: measured here: lipid fluorescence (Fed channel) AC50, cells fed with added oleic acid.
Setting [2] is: measured here: cell number channel AC50, cells fed with added oleic acid.

SMILES strings stand for the structures. The list shows a part of the results. Shown are side measurements of this screen, not its main read-out; they come without a call. The list favours compounds with an active or inconclusive main result. Potencies come from curve fits of mixed quality, noted in brackets.

As to `CC1Nc2ncnc(N3CCc4ccccc4C3)c2N(Cc2ccc(Cl)cc2)C1=O` (configuration not stated), the cell number change was -23.1%. In addition, the AC50 (usually the concentration at which the activity in the assay is half-maximal) under setting [1] was 5.17 µM [rising, single point]. Consider `O=C(O)/C=C/C(=O)Nc1ccc(Oc2ccc(NC(=O)/C=C/C(=O)O)cc2)cc1`, for which the cell number change came to 1.11%. Further, the AC50 under setting [1] is 0.326 µM [falling, full curve, poor fit]. On to `O=C(CN(C(=O)c1ccccc1Cl)N1C(=O)C2C3C=CC(C3)C2C1=O)c1cccs1` (configuration not stated), for which the cell number change was -43.9%. The AC50 under setting [2] is 1.3 µM [falling, full curve]. Regarding `CCOC(=O)C1=C(CN2CCC(C)CC2)NC(=O)NC1c1ccc(Cl)cc1` (configuration not stated), the AC50 under setting [1] is 0.82 µM [rising, partial curve]. In the case of `Cc1cc(C)n2cc(CSc3ccccn3)nc2n1`, the cell number change came out at 25.2%. In addition, the AC50 under setting [2] is 4.11 µM [rising, full curve, poor fit]. For `CC(=NCCCn1ccnc1)c1c(-c2ccccc2)[nH]n(-c2nc3ccccc3s2)c1=O`, the cell number change worked out at 57.8%. In addition, the AC50 under setting [2] is 1.84 µM [rising, full curve]. Also, the AC50 under setting [1] was 0.461 µM [rising, partial curve, poor fit]. As for `CC1(C)Cc2c(cnn2-c2cccc(F)c2)C(NC(=O)C2CCOCC2)C1` (configuration not stated), the cell number change turned out to be 2.09%. Moreover, the concentration at half-maximal activity (AC50) under setting [1] was 16.4 µM [falling, single point].

In the case of `Cc1c(/C=N/N2C(=O)C3C4C=CC(C4)C3C2=O)c2ccccc2n1C` (configuration not stated), the cell number change worked out at 5.76%. Further, the AC50 under setting [1] was 13 µM [rising, partial curve]. On to `Cc1cc(-c2nn3c(-c4ccccc4)nnc3s2)c2ccccc2n1`, for which the cell number change stood at 125%. In addition, the AC50 under setting [2] is 1.46 µM [rising, full curve]. Further, under setting [1], the AC50 was 1.16 µM [rising, full curve].

Take `CC(C)C(C(=O)OCC(=O)c1ccc2c(c1)NC(=O)CO2)N1C(=O)c2ccccc2C1=O` (configuration not stated): the cell number change was -1.72%. Also, under setting [1], the AC50 was 18.4 µM [falling, partial curve]. Consider `CCCC(=O)Nc1sc(C(=O)OC)c(C)c1C(N)=O`, for which the cell number change is -33.8%. The AC50 under setting [2] was 18.4 µM [falling, single point]. Under setting [1], the half-maximal activity concentration (AC50) is 14.6 µM [falling, single point]. As for `COc1ccc(CN2CCNC(=O)C2CC(=O)N(C)CCC2CCOCC2)c(OC)c1` (configuration not stated), the cell number change is 26.6%. Also, the AC50 under setting [2] is 0.259 µM [rising, full curve, poor fit]. Moreover, under setting [1], the AC50 was 0.58 µM [falling, single point]. Take `CCCCn1c(N)c(N(CC(C)C)C(=O)c2cc(-c3ccc(F)cc3)nc3ccccc23)c(=O)[nH]c1=O`: the cell number change was -20.7%. Further, the AC50 under setting [1] is 29.1 µM [falling, single point]. Turning to `CC(C)CN(C(=O)COC(=O)CCN1C(=O)c2ccccc2C1=O)C1CCS(=O)(=O)C1` (configuration not stated), the cell number change is 0.0678%. Further, under setting [1], the AC50 is 0.731 µM [rising, full curve, poor fit]. `CCN(CC(=O)Nc1c(F)cccc1F)C(=O)Cn1c(=O)cnc2ccccc21`: the cell number change is -8.29%.

As to `O=C(Nc1ccccc1Cl)NC1(C(=O)NCCCN2CCOCC2)CCCCC1`, the cell number change was -14.1%. Further, the AC50 under setting [1] was 23.1 µM [falling, partial curve, poor fit]. `CCOc1cc(C(=O)Nc2ccc(S(=O)(=O)Nc3cc(C)on3)cc2)cc(OCC)c1OCC`: the cell number change was 0.903%. The AC50 under setting [2] was 6.51 µM [falling, single point]. Also, the AC50 under setting [1] was 6.51 µM [falling, single point]. On to `N#CCSc1ccccc1NC(=O)COC(=O)Cc1c[nH]c2ccccc12`, for which the cell number change is -5.64%. In addition, the AC50 under setting [1] is 29.1 µM [rising, single point]. Turning to `COCCN(Cc1ccc(C)c(Br)c1)C(=O)Cn1cnc(S(=O)(=O)N2CCCC2)c1`, the AC50 under setting [1] was 0.731 µM [falling, single point]. In the case of `Cc1cc(/C=C2\Sc3ccccc3N2C)cc(C)[n+]1CC1CCCO1` (configuration not stated), the cell number change is -18.2%. Also, the AC50 under setting [1] was 0.116 µM [falling, full curve, poor fit].

As for `O=C(COc1ccc(Br)cc1)N(Cc1ccco1)C1CCS(=O)(=O)C1` (configuration not stated), the cell number change is -8.37%. The AC50 under setting [1] was 8.2 µM [rising, partial curve]. On to `O=C(COc1ccc(Cl)cc1Cl)NN1C(=O)C2C3C=CC(C3)C2C1=O` (configuration not stated), for which the cell number change worked out at 27.9%. In addition, under setting [1], the AC50 was 0.00461 µM [falling, full curve, poor fit]. Consider `CCOC(=O)CCCNC(=O)COc1ccccc1C#N`, for which the cell number change was found to be 3.21%.

Turning to `C[C@@]12C(=O)N(c3cccc(F)c3)C(=O)N1[C@H](c1ccc(F)cc1)[C@@H]1C(=O)N(C3CCCCC3)C(=O)[C@@H]12`, the cell number change was found to be 6.59%. Regarding `CCCCCC(=O)N=Nc1c(O)[nH]c2ccc([N+](=O)[O-])cc12`, the cell number change is -13%. Moreover, the half-maximal activity concentration (AC50) under setting [1] is 0.461 µM [falling, full curve]. In the case of `CCCC(=NCCc1c(C)[nH]c2ccccc12)C1=C(O)CC(c2ccccc2)CC1=O` (configuration not stated), the cell number change was -30.4%. Also, the AC50 under setting [2] is 16.4 µM [falling, single point]. On to `CC(=O)N1c2ccccc2C(=O)C1N(C)c1ccc(C)cc1` (configuration not stated), for which the AC50 under setting [2] is 6.51 µM [rising, single point]. With `Cc1ccccc1C(=O)NNC(=O)c1ccc(Br)cc1`, the AC50 under setting [1] is 6.51 µM [rising, single point].

Turning to `Cc1[nH]n(-c2ccccc2)c(=O)c1C=NCc1ccncc1`, the cell number change came out at 30.3%. Also, the AC50 under setting [2] is 29.1 µM [rising, single point]. As to `Cn1c(=O)c(-[n+]2ccccc2)c([O-])c2ccccc21`, the cell number change is -81.8%. Besides, the AC50 under setting [2] was 23.1 µM [falling, partial curve]. In addition, under setting [1], the AC50 is 0.206 µM [falling, full curve, poor fit]. Turning to `CCCCN1C(=O)C(O)(CC(=O)c2c(C)coc2C)c2ccccc21` (configuration not stated), the cell number change is 89.5%.

As to `COc1ccc(N(C(=O)c2ccncc2)S(=O)(=O)c2ccc(OC)c(OC)c2)cc1`, the cell number change was found to be 23.1%. On to `CC1CCc2c(nc3nc[nH]n3c2=O)C1` (configuration not stated), for which the cell number change was determined as 7.27%. On the same count and under the same terms, then `CCOc1cc(/C=C(\C#N)C(=O)Nc2ccccn2)ccc1O`, with 0.84%.

For the molecule `O=C(NC1CCCCC1)c1ccc(CNc2ccccc2)o1`, the cell number change is 30.5%. In addition, the AC50 under setting [2] was 8.2 µM [rising, single point]. For `COc1cc([N+](=O)[O-])ccc1NC(=O)NN1CCN(C)CC1`, the cell number change amounted to 22.2%. The AC50 under setting [1] is 29.1 µM [falling, single point]. On to `O=C(/C=C/c1ccc(Cl)cc1)Nc1ccc(S(=O)(=O)Nc2ncccn2)cc1`, for which the cell number change was determined as 11.9%. `O=C(NCCc1ccccc1)C1CCCN1C(=O)Nc1ccccc1` (configuration not stated): the cell number change is -22%. In addition, the AC50 under setting [1] is 29.1 µM [rising, single point].

In the case of `Cn1c2ccccc2c(=O)c2cc(C#Cc3ccsc3)ccc21`, the cell number change is 3.24%. Besides, the AC50 under setting [1] is 20.6 µM [falling, single point]. In the case of `CCOc1ccccc1NC(=O)Cn1ncc2ccc([N+](=O)[O-])cc21`, the cell number change is 16.2%. Under setting [1], the AC50 was 29.1 µM [rising, single point]. Turning to `COc1ccccc1NC(=O)c1coc(=O)c(Br)c1`, the cell number change is 10.9%. The AC50 under setting [2] was 0.184 µM [falling, full curve]. Consider `Cc1ccc(NC(=O)c2ccco2)cc1NC(=O)CSc1nnc(-c2cccs2)n1C`, for which, under setting [1], the AC50 is 0.461 µM [rising, full curve]. Turning to `CCN(CC)S(=O)(=O)c1cc(NC(=O)NCCCl)ccc1C`, the cell number change turned out to be 2.67%. With `COc1ccc(S(=O)NC2CCCCC2)c(OC)c1C` (configuration not stated), the cell number change was -8.54%. Also, the AC50 under setting [1] was 6.51 µM [falling, partial curve]. Regarding `CC(C)(C)NC(=O)COC(=O)c1c2c(nc3ccccc13)CCC2`, the cell number change was -13.2%. Besides, the AC50 under setting [1] was 0.794 µM [rising, full curve, poor fit]. For `Cc1cc(C(=O)NCc2cccs2)n(-c2ccccc2)n1`, the cell number change is -13.5%. The AC50 under setting [1] was 29.1 µM [falling, single point]. Take `CCCn1c(SCC(=O)Nc2ccccc2Oc2ccccc2)n[nH]c1=O`: the cell number change came to 95.1%. In addition, under setting [2], the AC50 is 13 µM [rising, partial curve].

Consider `COc1ccccc1CNC(=O)c1cc(C)nn1-c1ccccc1`, for which the cell number change was 21.3%. Consider `CCCC(=O)Nc1ccc(C(=O)NNC(=S)NC(=O)c2cccs2)cc1`, for which the cell number change was -8.33%. Moreover, the AC50 under setting [1] is 29.1 µM [rising, single point]. As for `C=C1C(C(=O)N2CCN(C)CC2)C1C(=O)N1CCN(C)CC1` (configuration not stated), the cell number change came to 2.33%. In the case of `CCOc1ccccc1NC(=O)COc1cccc(-n2cnnn2)c1`, the cell number change amounted to 9.91%. Moreover, the AC50 under setting [2] is 0.231 µM [rising, full curve, poor fit]. Further, under setting [1], the AC50 is 0.411 µM [rising, full curve, poor fit].

On to `O=C(Nc1ccc(F)cc1F)c1csc(-c2ccccc2)n1`, for which the cell number change is -17%. In addition, under setting [2], the AC50 is 0.0517 µM [falling, full curve, poor fit]. Further, the AC50 under setting [1] was 0.103 µM [falling, full curve, poor fit]. `O=C(c1cc(COc2ccc(F)cc2Cl)on1)N1CCc2sccc2C1`: the cell number change was -4.25%. Besides, the AC50 under setting [2] is 1.64 µM [rising, partial curve]. For the molecule `CCCc1ccc(-c2csc(NC(=O)Cc3cccs3)n2)cc1`, the cell number change is -51%. The AC50 under setting [2] is 6.51 µM [falling, partial curve]. Moreover, under setting [1], the AC50 was 1.46 µM [falling, full curve]. As to `N#Cc1nc(-c2cccc3ccccc23)oc1NCC1CCCO1` (configuration not stated), the cell number change amounted to 17%. Besides, the AC50 under setting [2] was 1.84 µM [rising, partial curve].

For the molecule `CC(C)(C)Cc1cc(N)on1`, the cell number change amounted to 43.4%. For the same molecule, the AC50 under setting [2] was 29.1 µM [rising, single point]. Also, the AC50 under setting [1] was 16.4 µM [rising, single point]. On to `C=CCN1C(=O)C(C(C)CC)NC1=S` (configuration not stated), for which the AC50 under setting [1] was 0.58 µM [falling, full curve]. As for `CC1CCCCN1c1nc(-c2ccncc2)nc2ccccc12` (configuration not stated), the cell number change is -38.1%. Also, the AC50 under setting [2] was 4.61 µM [falling, full curve, poor fit]. As to `C=CC[n+]1c(C)csc1Nc1cccc(Br)c1`, the AC50 reads like this: under setting [2], 2.31 µM [rising, single point]; under setting [1], 6.51 µM [rising, single point]. For `Cc1ccc2[nH]c3c(=O)n(CCN4CCNCC4)cnc3c2c1`, the cell number change is 33.8%. The AC50 under setting [2] was 7.31 µM [rising, partial curve, poor fit]. Besides, the AC50 under setting [1] is 18.4 µM [rising, partial curve, poor fit]. In the case of `CC(C)(C)c1ccc(C(=O)O/N=C(\N)c2ccccc2)cc1`, the cell number change is -37.8%. Further, under setting [2], the AC50 was 25.9 µM [falling, single point]. Besides, the AC50 under setting [1] is 23.1 µM [falling, single point].

The values above are taken from PubChem BioAssay AID2685 (National Center for Advancing Translational Sciences (NCATS), 2010).
